From article PMC10203668
These are yes or no findings as the source states them, for the method shown. Binding seen in cells or lysates may run through a third protein. Some binding calls cover weakened binding; strength is not graded here.

Target: T1, Heat-Shock Factor 1 (HSF1), Q00613
T1 chain: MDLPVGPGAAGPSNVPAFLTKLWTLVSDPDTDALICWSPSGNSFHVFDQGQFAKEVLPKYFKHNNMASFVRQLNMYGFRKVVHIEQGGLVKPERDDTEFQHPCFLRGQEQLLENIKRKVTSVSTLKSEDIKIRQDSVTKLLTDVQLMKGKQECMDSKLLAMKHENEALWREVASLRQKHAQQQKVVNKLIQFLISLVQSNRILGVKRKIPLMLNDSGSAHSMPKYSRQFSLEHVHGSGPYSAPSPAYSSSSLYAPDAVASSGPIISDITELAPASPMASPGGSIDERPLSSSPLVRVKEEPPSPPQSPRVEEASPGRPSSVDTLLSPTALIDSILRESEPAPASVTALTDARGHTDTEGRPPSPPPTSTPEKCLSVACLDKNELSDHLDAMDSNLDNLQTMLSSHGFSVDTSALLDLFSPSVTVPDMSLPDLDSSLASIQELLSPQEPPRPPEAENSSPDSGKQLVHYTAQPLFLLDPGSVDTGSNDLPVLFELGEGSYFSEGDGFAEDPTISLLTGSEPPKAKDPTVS
Test: FRET or BRET; intermolecular BRET in live cells co-expressing nLuc-HSF1 (donor) and mNeonG-HSF1 (acceptor) with HSP90 vector; 37 °C; 5 µM Coelenterazine H; MG132 for 18 h; sham or 5G-modulated 3.5 GHz RF-EMF exposure for 24 h
Details: remark: other sources report otherwise

- binding: binds
B1: Heat-Shock Factor 1 (HSF1), Q00613 1-529 (protein)
chain: MDLPVGPGAAGPSNVPAFLTKLWTLVSDPDTDALICWSPSGNSFHVFDQGQFAKEVLPKYFKHNNMASFVRQLNMYGFRKVVHIEQGGLVKPERDDTEFQHPCFLRGQEQLLENIKRKVTSVSTLKSEDIKIRQDSVTKLLTDVQLMKGKQECMDSKLLAMKHENEALWREVASLRQKHAQQQKVVNKLIQFLISLVQSNRILGVKRKIPLMLNDSGSAHSMPKYSRQFSLEHVHGSGPYSAPSPAYSSSSLYAPDAVASSGPIISDITELAPASPMASPGGSIDERPLSSSPLVRVKEEPPSPPQSPRVEEASPGRPSSVDTLLSPTALIDSILRESEPAPASVTALTDARGHTDTEGRPPSPPPTSTPEKCLSVACLDKNELSDHLDAMDSNLDNLQTMLSSHGFSVDTSALLDLFSPSVTVPDMSLPDLDSSLASIQELLSPQEPPRPPEAENSSPDSGKQLVHYTAQPLFLLDPGSVDTGSNDLPVLFELGEGSYFSEGDGFAEDPTISLLTGSEPPKAKDPTVS
